According to EP4445957A1 (priority 2023, dated 2024):
For some assays here: HELM strings list residues between dots; [ac] is acetyl, [am] amide, other brackets name non-standard units.

Tests used:
Settings in all cases: whole synthesis, scale 0.1 mmol, chloride (salt exchange from trifluoroacetate)
[1] = general procedure: Fmoc solid-phase peptide synthesis; Fmoc-Phe preloaded Wang resin (loading = 0.52 mmol/g); DIC (symmetric anhydride for resin loading)
[2] = general procedure: Fmoc solid-phase peptide synthesis; Wang resin (loading = 0.37 mmol/g); DIC (symmetric anhydride for resin loading)
[3] = general procedure: Fmoc solid-phase peptide synthesis; Fmoc-Phe preloaded Wang resin (loading = 0.33 mmol/g); DIC (symmetric anhydride for resin loading)
[4] = general procedure: Fmoc solid-phase peptide synthesis; Wang resin (loading = 0.52 mmol/g); DIC (symmetric anhydride for resin loading)

Row | Substance | isolated mass [1] [mg] | isolated yield [1] [%] | other results
1 | Ac-Gln-Cha-Dap(but-2-enamide)-Leu-Phe-OH | 38.3 | 51 | –
2 | Ac-Gln-Cha-Dap(chloroacetamide)-Leu-diClPhe-OH | – | – | isolated mass [2]: 17.4 mg; isolated yield [2]: 21%
3 | Ac-Gln-Cha-Dap(N-sulfonyl pyridone)-Leu-Phe-OH | – | – | isolated mass [3]: 8.6 mg; isolated yield [3]: 9%
4 | PEPTIDE1{[ac].Q.[Cha].[Dap(chloroacetamide)].L.F}$$$$V2.0 | 12.5 | 16 | –
5 | PEPTIDE1{[ac].Q.[Cha].[Dap(but-2-ynamide)].L.F}$$$$V2.0 | 33.1 | 35 | –
6 | PEPTIDE1{[ac].Q.[Cha].[Dap(bromoacetamide)].L.F}$$$$V2.0 | – | – | isolated mass [4]: 41.4 mg; isolated yield [4]: 51%
7 | PEPTIDE1{[ac].Q.[Cha].[Dap(acrylamide)].L.F}$$$$V2.0 | 22.7 | 24 | –
